Experimental data taken from article PMC4299599, “Quantification of cytosolic interactions identifies Ede1 oligomers as key organizers of endocytosis” (Molecular Systems Biology, 2014).
Results are given in words; binding and its absence hold for the method and conditions named. Some results given as binding are weak or reduced against the parent protein; the word gives no strength.

Protein sequences, listed by entry. Tags and fused reporters are not part of them.
UniProt Q12446: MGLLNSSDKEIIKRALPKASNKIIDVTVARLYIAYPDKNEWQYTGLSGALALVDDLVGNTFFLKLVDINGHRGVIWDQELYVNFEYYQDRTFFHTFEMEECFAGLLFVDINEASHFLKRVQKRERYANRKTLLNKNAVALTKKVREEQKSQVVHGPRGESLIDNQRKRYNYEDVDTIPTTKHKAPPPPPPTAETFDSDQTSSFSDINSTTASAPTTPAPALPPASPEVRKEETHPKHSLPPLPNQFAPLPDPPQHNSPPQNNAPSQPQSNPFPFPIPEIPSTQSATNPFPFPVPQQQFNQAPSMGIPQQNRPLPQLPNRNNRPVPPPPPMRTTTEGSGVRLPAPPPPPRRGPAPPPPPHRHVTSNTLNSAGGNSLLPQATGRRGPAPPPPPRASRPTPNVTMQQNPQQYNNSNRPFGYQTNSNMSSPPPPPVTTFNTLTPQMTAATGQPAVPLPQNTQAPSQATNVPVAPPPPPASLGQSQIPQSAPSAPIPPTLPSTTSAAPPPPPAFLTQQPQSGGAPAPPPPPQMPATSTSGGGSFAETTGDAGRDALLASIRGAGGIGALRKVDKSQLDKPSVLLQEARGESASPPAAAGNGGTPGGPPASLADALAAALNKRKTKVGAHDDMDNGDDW

T1: Bbc1 (S. cerevisiae, UniProt P47068 1-1157)
T1 construct: Bbc1, S. cerevisiae; also called Bbc1-3myeGFP; Bbc1-3mCherry; source: chromosomally tagged at the endogenous locus, in the cytoplasm of living S. cerevisiae cells
T1 sequence (looked up): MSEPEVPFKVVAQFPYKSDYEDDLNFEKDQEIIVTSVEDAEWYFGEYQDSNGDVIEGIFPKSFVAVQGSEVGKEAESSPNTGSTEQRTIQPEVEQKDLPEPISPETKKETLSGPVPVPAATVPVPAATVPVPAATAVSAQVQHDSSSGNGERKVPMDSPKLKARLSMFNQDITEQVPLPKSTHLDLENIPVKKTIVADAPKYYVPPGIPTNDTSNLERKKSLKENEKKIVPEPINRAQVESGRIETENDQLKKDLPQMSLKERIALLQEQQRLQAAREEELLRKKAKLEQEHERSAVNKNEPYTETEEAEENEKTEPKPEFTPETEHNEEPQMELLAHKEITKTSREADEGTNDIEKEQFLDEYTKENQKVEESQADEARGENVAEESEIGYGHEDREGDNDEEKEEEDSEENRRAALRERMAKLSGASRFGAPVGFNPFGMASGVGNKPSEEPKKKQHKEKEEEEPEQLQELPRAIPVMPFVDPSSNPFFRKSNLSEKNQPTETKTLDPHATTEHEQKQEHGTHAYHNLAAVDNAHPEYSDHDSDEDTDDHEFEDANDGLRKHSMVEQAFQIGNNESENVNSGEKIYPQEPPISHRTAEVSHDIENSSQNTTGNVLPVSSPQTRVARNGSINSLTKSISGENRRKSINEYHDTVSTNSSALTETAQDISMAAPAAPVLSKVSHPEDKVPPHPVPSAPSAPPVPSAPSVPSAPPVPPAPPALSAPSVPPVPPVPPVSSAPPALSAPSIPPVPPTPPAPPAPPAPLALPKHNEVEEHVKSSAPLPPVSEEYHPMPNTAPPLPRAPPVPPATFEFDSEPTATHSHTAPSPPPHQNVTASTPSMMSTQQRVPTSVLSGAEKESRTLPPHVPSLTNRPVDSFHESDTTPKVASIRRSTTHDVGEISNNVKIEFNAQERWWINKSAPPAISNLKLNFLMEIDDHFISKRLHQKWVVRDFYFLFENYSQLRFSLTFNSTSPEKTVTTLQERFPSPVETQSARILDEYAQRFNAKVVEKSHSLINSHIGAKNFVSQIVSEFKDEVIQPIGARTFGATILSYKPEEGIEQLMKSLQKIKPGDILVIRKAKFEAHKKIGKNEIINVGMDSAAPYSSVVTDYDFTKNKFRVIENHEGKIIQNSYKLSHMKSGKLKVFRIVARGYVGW

T2: Rvs161 (S. cerevisiae) (UniProt P25343)
T2 sequence: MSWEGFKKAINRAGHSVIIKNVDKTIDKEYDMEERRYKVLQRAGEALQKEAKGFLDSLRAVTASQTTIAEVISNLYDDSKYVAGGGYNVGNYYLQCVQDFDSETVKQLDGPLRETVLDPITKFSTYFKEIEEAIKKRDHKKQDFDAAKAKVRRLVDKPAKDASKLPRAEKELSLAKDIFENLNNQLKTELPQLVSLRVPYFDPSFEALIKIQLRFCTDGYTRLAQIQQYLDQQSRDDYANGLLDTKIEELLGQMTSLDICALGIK

T3: Sla2 (S. cerevisiae, UniProt P33338 1-968)
T3 construct: Sla2, S. cerevisiae; also called Sla2-3myeGFP; Sla2-3mCherry; source: chromosomally tagged at the endogenous locus, in the cytoplasm of living S. cerevisiae cells
T3 sequence (looked up): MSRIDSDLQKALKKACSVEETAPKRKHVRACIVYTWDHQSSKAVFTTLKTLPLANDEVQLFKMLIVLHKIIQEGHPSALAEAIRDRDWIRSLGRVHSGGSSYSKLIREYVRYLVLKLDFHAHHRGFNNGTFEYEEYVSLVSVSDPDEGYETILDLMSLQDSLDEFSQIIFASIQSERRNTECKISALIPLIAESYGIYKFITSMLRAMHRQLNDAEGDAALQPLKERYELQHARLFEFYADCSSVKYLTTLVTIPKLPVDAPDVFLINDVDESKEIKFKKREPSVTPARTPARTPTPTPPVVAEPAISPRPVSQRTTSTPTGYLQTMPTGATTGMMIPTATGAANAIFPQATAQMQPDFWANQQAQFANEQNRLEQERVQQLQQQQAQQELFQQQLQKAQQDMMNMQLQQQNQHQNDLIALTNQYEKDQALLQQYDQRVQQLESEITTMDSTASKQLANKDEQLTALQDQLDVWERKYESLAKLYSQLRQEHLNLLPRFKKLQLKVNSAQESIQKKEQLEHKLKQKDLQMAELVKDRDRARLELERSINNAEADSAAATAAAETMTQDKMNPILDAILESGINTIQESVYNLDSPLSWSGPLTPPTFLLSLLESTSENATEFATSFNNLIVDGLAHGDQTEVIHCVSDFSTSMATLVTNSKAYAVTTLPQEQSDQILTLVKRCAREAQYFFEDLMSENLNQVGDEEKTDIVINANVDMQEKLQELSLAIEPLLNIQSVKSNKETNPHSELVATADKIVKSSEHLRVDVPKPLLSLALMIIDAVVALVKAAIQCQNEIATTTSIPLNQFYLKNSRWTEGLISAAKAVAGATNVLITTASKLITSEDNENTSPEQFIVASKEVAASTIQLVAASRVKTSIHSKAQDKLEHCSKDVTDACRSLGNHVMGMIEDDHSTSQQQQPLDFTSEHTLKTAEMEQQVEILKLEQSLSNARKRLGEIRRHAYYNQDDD

T4: End3 (S. cerevisiae) (UniProt P39013)
T4 sequence: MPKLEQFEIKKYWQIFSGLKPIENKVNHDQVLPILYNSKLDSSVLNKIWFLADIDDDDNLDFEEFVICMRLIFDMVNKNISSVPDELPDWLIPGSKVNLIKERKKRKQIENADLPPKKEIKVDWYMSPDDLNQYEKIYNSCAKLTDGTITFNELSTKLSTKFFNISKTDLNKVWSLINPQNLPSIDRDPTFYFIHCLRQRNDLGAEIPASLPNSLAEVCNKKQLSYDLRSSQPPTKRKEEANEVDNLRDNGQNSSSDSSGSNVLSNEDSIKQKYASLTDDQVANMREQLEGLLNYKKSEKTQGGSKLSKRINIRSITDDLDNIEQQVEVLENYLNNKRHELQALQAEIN

T5: Ede1 (S. cerevisiae) (UniProt P34216)
T5 sequence: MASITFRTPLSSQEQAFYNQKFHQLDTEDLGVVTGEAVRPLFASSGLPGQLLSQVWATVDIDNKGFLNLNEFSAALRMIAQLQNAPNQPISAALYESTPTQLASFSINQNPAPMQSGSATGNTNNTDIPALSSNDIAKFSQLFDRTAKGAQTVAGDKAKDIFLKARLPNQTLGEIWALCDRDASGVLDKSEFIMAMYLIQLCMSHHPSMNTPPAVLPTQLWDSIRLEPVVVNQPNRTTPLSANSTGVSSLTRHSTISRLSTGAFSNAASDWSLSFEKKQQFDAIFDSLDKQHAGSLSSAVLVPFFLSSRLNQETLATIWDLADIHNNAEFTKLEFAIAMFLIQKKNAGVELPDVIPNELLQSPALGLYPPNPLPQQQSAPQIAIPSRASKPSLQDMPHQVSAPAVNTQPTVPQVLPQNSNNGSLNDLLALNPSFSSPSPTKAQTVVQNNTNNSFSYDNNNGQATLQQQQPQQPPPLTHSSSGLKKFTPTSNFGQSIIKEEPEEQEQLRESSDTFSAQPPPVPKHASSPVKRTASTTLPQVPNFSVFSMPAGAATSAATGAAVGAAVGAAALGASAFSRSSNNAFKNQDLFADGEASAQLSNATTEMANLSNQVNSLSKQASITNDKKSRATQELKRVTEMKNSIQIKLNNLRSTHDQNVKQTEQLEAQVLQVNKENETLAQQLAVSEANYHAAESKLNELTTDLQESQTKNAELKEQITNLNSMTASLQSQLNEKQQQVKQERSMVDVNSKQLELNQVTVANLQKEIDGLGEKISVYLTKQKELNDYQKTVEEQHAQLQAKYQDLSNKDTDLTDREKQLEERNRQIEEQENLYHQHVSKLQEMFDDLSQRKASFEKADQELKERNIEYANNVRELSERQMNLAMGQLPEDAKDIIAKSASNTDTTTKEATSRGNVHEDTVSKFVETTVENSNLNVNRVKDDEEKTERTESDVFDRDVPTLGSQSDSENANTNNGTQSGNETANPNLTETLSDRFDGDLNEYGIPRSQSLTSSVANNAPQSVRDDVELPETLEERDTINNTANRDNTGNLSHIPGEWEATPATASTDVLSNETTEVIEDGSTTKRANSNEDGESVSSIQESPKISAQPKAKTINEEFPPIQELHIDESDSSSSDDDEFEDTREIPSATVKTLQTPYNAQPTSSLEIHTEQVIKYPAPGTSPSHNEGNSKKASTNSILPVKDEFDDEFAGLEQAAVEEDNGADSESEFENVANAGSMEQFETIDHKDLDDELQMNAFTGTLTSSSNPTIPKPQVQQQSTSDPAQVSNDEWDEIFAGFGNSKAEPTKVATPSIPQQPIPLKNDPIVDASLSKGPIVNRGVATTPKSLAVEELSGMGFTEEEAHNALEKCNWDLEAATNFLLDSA


What was measured:
Bbc1 = target: T1, Bbc1; test: fluorescence cross-correlation spectroscopy (FCCS); living yeast cells, observation volume in the cytoplasm; one protein tagged with (3)myeGFP/eGFP and the other with 3mCherry in the same strain; apparent (effective) KD; interactions up to ~1 μM detectable
Las17 (S. cerevisiae) [1] = target: Las17 (S. cerevisiae) (UniProt Q12446); test: condition: detection range of FCCS: apparent KD up to ~1 μM; fluorescence cross-correlation spectroscopy (FCCS); self-interaction: living diploid yeast cells with one allele fused to (3)myeGFP and one to (3)mCherry, cytoplasm; apparent (effective) KD, to be taken as the upper limit since complexes of one colour are not seen
Las17 (S. cerevisiae) [2] = target: Las17 (S. cerevisiae) (UniProt Q12446); test: condition: 1000 nM (only Kdeff-values < 1000 nM are shown); fluorescence cross-correlation spectroscopy (FCCS); in the cytoplasm of living yeast cells; first-named protein green (3myeGFP or 1myeGFP; eGFP for Don1), second red (3mCherry); self-interaction in diploid strains with one allele of each colour; apparent or effective KD (Kdeff) from single-cell measurements; only Kdeff values < 1000 nM are shown; values for self-interactions are upper limits
Rvs161 (S. cerevisiae) = target: T2, Rvs161 (S. cerevisiae); test: as above
Sla2 = target: T3, Sla2; test: as above
End3 (S. cerevisiae) [3] = target: T4, End3 (S. cerevisiae); test: condition: detection range of FCCS: apparent KD up to ~1 μM; fluorescence cross-correlation spectroscopy (FCCS); self-interaction: living diploid yeast cells with one allele fused to (3)myeGFP and one to (3)mCherry, cytoplasm; apparent (effective) KD, to be taken as the upper limit since complexes of one colour are not seen
End3 (S. cerevisiae) [4] = target: T4, End3 (S. cerevisiae); test: condition: 1000 nM (only Kdeff-values < 1000 nM are shown); fluorescence cross-correlation spectroscopy (FCCS); in the cytoplasm of living yeast cells; first-named protein green (3myeGFP or 1myeGFP; eGFP for Don1), second red (3mCherry); self-interaction in diploid strains with one allele of each colour; apparent or effective KD (Kdeff) from single-cell measurements; only Kdeff values < 1000 nM are shown; values for self-interactions are upper limits
Ede1 (S. cerevisiae) = target: T5, Ede1 (S. cerevisiae); test: as above

Row | binding (Bbc1) | binding (Las17 (S. cerevisiae) [1]) | binding (Las17 (S. cerevisiae) [2]) | binding (Rvs161 (S. cerevisiae)) | binding (Sla2) | binding (End3 (S. cerevisiae) [3]) | binding (End3 (S. cerevisiae) [4]) | binding (Ede1 (S. cerevisiae)) | Molecule
1 | binds | no binding | no binding | no binding | no binding | – | – | – | Las17 (from UniProt Q12446 1-633)
2 | – | – | – | – | – | no binding | no binding | no binding | End3 (natural protein, S. cerevisiae, UniProt P39013 1-349, looked up, End3, S. cerevisiae; also called End3-3myeGFP; End3-3mCherry; source: chromosomally tagged at the endogenous locus, in the cytoplasm of living S. cerevisiae cells) MPKLEQFEIKKYWQIFSGLKPIENKVNHDQVLPILYNSKLDSSVLNKIWFLADIDDDDNLDFEEFVICMRLIFDMVNKNISSVPDELPDWLIPGSKVNLIKERKKRKQIENADLPPKKEIKVDWYMSPDDLNQYEKIYNSCAKLTDGTITFNELSTKLSTKFFNISKTDLNKVWSLINPQNLPSIDRDPTFYFIHCLRQRNDLGAEIPASLPNSLAEVCNKKQLSYDLRSSQPPTKRKEEANEVDNLRDNGQNSSSDSSGSNVLSNEDSIKQKYASLTDDQVANMREQLEGLLNYKKSEKTQGGSKLSKRINIRSITDDLDNIEQQVEVLENYLNNKRHELQALQAEIN
